This passage reports binding results from article PMC7791120.

Protein sequences, listed by entry. Tags and fused reporters are not part of them. Residues count along the entry.
UniProt P28074, residues 60-263: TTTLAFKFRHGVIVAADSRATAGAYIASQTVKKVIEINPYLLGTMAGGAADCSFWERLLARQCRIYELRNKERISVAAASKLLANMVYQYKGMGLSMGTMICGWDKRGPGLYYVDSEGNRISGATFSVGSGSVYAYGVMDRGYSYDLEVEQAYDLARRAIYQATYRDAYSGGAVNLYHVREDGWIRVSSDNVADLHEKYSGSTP

These are yes or no findings as the source states them, for the method shown. Binding seen in cells or lysates may run through a third protein.

The target of this test is T1, Tribbles homolog 2 (TRIB2), endogenous (human (endogenous in Bel-7402)) (UniProt Q92519).
T1 sequence: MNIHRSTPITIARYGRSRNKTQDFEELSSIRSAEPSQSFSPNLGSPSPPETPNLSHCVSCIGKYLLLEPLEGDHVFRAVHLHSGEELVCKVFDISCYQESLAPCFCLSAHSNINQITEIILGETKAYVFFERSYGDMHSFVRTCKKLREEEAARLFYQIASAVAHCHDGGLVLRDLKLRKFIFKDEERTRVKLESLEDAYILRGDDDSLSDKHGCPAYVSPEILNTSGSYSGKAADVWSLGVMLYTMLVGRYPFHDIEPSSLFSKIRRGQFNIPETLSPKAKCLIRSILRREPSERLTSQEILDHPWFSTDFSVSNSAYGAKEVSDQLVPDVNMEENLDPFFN
Briefly: proximity ligation; Duolink in situ PLA on cells fixed in 4% paraformaldehyde, primary antibodies to the two proteins; Bel-7402 and SMMC-7721 named for PCBP2 with PSMB5.

As to “proteasome 20S subunit beta 5 (PSMB5), endogenous (from UniProt P28074 60-263)”, the binding result is recorded as “no binding”.
